Values are the deposited “Percent Effect”, in %.
The controls that fix the scale are not given in the record; negative values are as filed.
The compounds are a random part of those screened.

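Whole-parasite assay of Trypanosoma brucei over 72 hours; the read-out is not stated. Compounds at 30 µM. The record gives no direction; compounds that gave an IC50 in retests scored well above the rest, so higher reads as stronger inhibition. Values scatter widely below zero; nearly all retest evidence comes from the higher of the two concentrations used. About 64,000 compounds were tested under these conditions; 1.5% (about 940) showed 50% or more at least once.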

compound	effect
CC(C)c1nc(CSc2nnc(-c3cccs3)n2CC(N)=O)no1	2.347
Cc1ccn(CCNC(=O)C2CCN(S(=O)(=O)c3ccc(F)cc3)C2)n1 (centres undefined)	-5.869
O=C(CCc1ccco1)N1CCCC(n2cccn2)C1 (centres undefined)	12.32
Cc1cc(CN2CCN(C(=O)NCc3ccoc3)CC2)no1	3.924
CN(Cc1nccn1C)C(=O)C1COCC(=O)N1Cc1ccccc1 (centres undefined)	-13.81
CSc1ncc(C(=O)N2C[C@@H](NC(C)=O)[C@H](c3ccc(C)cc3)C2)cn1	-5.862
CNc1nc(CNC(=O)Nc2cccc(C)c2Cl)cs1	5.118
COCCC(=O)N1C[C@@H](c2ccc(F)c(F)c2)[C@@]2(CCCC(=O)N2)C1	-11.42
Cn1cc(Cl)cc1C(=O)N1CCC2(CCCN(CC3CCC3)C2=O)C1 (centres undefined)	-31.49
COc1cccc(CNC(=O)N2CCN3CCNC(=O)C3C2)c1 (centres undefined)	-22.47
CCc1nnc(CN2CCN(C(=O)c3cc4ccccc4[nH]3)CC2)o1	-35.64
COc1ccc(CCC2CCCN(C(=O)c3cnc(N)nc3C)C2)cc1 (centres undefined)	-8.978
Cc1cccc(CN2CCc3nnc(CN4CCCC4=O)n3CC2)n1.O=C(O)C(F)(F)F	10.41
CCO[C@@H]1CO[C@@]2(CCCN(C(=O)COc3ccccc3OC)C2)C1	12.25
CCc1ccc(CN2CCOC(Cc3cccc(F)c3)C2)nc1 (centres undefined)	-84.42
CNC(=O)c1sccc1N(C)S(=O)(=O)c1ccc(Cl)cc1	-28.33
[H][C@]12CN(c3ccccn3)CCN1C[C@@H](c1ccccc1)[C@@H]2CO	-10.01
CC1CCCCN1CCNC(=O)c1ccn(-c2cccc(F)c2)n1 (centres undefined)	-13.51
N#Cc1ccc(CS(=O)(=O)NC(=O)COc2ccc3c(c2)CCC3)cc1	2.704
O=C(c1cccc(F)c1F)N1CCn2c(nnc2C(F)(F)F)C1	-7.23
CC(C)C(NC(=O)c1ccccc1F)C(=O)N1CCC2(CC1)OCCO2 (centres undefined)	-43.1
CCC(CC)C(CNC(=O)Nc1cc(C)nn1C)N1CCOCC1 (centres undefined)	-1.682
CCN1CCN(C(=O)c2cn(Cc3ccccc3)c3ncccc23)CC1	5.772
CC1CCN(C(=O)c2cc(NC(=O)c3ccccc3)n(C)n2)CC1	-17.43
NC(=O)NC(=O)CCn1ccc(-c2ccccc2)n1	-51.14
Cn1cc(C(O)CNC(=O)Nc2cc(F)ccc2-n2cccn2)cn1 (centres undefined)	-194.9
NC(=O)c1c(NC(=O)CCCC(=O)O)sc2c1CCc1ccccc1-2	-4.413
O=C(O)C(F)(F)F.[H][C@@]12C[C@H](C(=O)NC)CN(Cc3cccc4ccccc34)[C@]1([H])CCO2	22.81
Cc1cccc(CN2CCC(NS(C)(=O)=O)CC2)n1	-23.5
Cn1cc(CCCNC(=O)NC2CCN(CC(F)(F)F)C2=O)cn1 (centres undefined)	-28.52
CN1CCN(Cc2cn3c(n2)CN(Cc2ccccn2)CC3)CC1	-18.5
Cc1nn(C)c(Oc2ccc(Cl)cc2)c1CN1CC[C@H](CO)[C@@H](O)C1	-0.9877
O=C(c1sccc1-n1cnnn1)N1CCC(Cc2ccccc2)CC1	-14.62
CCCc1nc(C)c(C(=O)NCc2ccc(C)n2C)s1	1.711
CCN(c1ccc(C(=O)N(Cc2cnn(C)c2)C(C)C)cn1)C(C)C	-0.4222
Cc1nc2ccccn2c1CC(=O)N[C@@H]1CCC[C@@H](N2CCCC2)[C@@H]1O	-15.66
Cc1cc(-c2cnc(N3CCN(C)CC3)nc2-c2ccc(C)s2)on1	43.86
COc1cccc(CNC(C)c2ccc(-n3ccnc3)cc2)c1OC.Cl (centres undefined)	-6.173
CCS(=O)(=O)N1CCC2(CN(c3cc(OC)ncn3)C2)C1	-42.43
O=S(=O)(CCCn1cncn1)Cc1ccccc1Cl	-97.19
Cc1nc(C)c(C(C)NCc2cnc(N3CCOCC3)nc2)s1.Cl (centres undefined)	-131.2
Cc1cc(N2CCCC2Cn2nc(C)cc2C)n2ncnc2n1 (centres undefined)	-17.29
CC(C)c1cc(NC(=O)CN2CCCC2Cn2cncn2)on1 (centres undefined)	-9.466
Cc1cc2ccncc2n1CC1(O)CCN(C(=O)c2ccccn2)CC1	-7.518
COc1ccc(Cl)cc1NCC(=O)N(Cc1cccnc1)C1CC1	-22.22
COc1ccc2c(c1)NC(C1CCN(C(=O)C(C)C)CC1)NS2(=O)=O (centres undefined)	-21.73
Cc1nc(CCN)cc(N2CCC(O)(c3ccccc3)C2)n1 (centres undefined)	-28.3
[H][C@]12CC[C@]([H])(CN(Cc3ccc(Cn4cccn4)cc3)C1)N(CCC)C2	-20.24
Cc1cc(NCCc2cnccn2)nc(-c2ccccc2O)n1	-70.93
CC(C)OCCCN(Cc1ccncc1)Cc1cc(F)cc(F)c1.Cl	-28.63
CC(C)CNc1nc2c(cc1C(=O)NCC1CC1)CCNCC2	100.1
O=C(C1CCCc2[nH]ncc21)N1CCCC2(C1)OCCO2 (centres undefined)	-14.92
CCN1C(=O)CC[C@]12CC[C@@H](NC(=O)NCc1cccnc1)CC2.O=C(O)C(F)(F)F	-64.19
CCC[C@H]1CN(S(=O)(=O)c2ccccc2)C[C@@H]1N	-6.25
CSCC(=O)N1CCc2c(cnc(C)c2-c2noc(-c3ccco3)n2)C1	31.76
O=C(NCCc1nnc2n1CCC2)NCC1(c2ccc(F)cc2)CC1	4.799
Cc1cc(C)c(CNc2cnn(CC(O)CN(C)C)c2)c(C)c1 (centres undefined)	-5.275
CC(=O)Nc1cc(C(C)(C)C)sc1C#N	-20.8
O=C(Nc1cnn(CC(=O)N2CCCCO2)c1)c1ccccn1	-63.86
Cn1cc(C2COC3(CCN(C(=O)c4cnccn4)CC3)C2)cn1 (centres undefined)	-216.8
Cc1ccoc1CNC(C)c1nnc2n1CCCC2 (centres undefined)	-29.92
Cl.Nc1ccc(-c2cnc(C3CCCN3)cn2)cn1 (centres undefined)	19.85
CC(NC(=O)NCC1(c2ccccc2)CCC1)c1nncn1C (centres undefined)	-22.1
CC(C)C1CN(c2nccc(N)n2)CCC(=O)N1Cc1ccc(F)cc1 (centres undefined)	-35.51
Cc1ccnn1CC(=O)Nc1cc(-c2ccncc2)[nH]n1	-27.39

Repeated from the top, 8 entries:

| compound | effect |
|---|---|
| `CC(C)c1nc(CSc2nnc(-c3cccs3)n2CC(N)=O)no1` | 2.347 |
| `Cc1ccn(CCNC(=O)C2CCN(S(=O)(=O)c3ccc(F)cc3)C2)n1` (centres undefined) | -5.869 |
| `O=C(CCc1ccco1)N1CCCC(n2cccn2)C1` (centres undefined) | 12.32 |
| `Cc1cc(CN2CCN(C(=O)NCc3ccoc3)CC2)no1` | 3.924 |
| `CN(Cc1nccn1C)C(=O)C1COCC(=O)N1Cc1ccccc1` (centres undefined) | -13.81 |
| `CSc1ncc(C(=O)N2C[C@@H](NC(C)=O)[C@H](c3ccc(C)cc3)C2)cn1` | -5.862 |
| `CNc1nc(CNC(=O)Nc2cccc(C)c2Cl)cs1` | 5.118 |
| `COCCC(=O)N1C[C@@H](c2ccc(F)c(F)c2)[C@@]2(CCCC(=O)N2)C1` | -11.42 |

The values are deposited in ChEMBL (CHEMBL3988442, “University of Dundee, Small-Polar-MMV Screening Library” (2021)).